In article PMC5606929 one finds binding data, which are given here for three molecules.

The target of experiment [1] is T1, human Aquaporin-2 (AQP2) expressed from pCB6-dBamHI-AQP2 in HEK293 cells (human) (UniProt P41181).
T1 sequence: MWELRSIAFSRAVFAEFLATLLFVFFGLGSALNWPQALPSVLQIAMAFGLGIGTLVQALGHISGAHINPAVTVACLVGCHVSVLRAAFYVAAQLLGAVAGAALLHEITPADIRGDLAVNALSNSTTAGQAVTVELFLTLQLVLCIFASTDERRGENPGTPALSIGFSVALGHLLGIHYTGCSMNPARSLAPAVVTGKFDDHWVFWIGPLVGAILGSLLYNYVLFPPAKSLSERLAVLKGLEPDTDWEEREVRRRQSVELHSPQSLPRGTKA
The experiment in a line: co-IP; HEK293 transiently co-expressing AQP2 and myc-NDFIP1 or myc-NDFIP2; 10 nM TPA 15 min before harvest; co-IP lysis buffer (100 mM NaCl, 25 mM Tris-HCl, 0.3% NP40, pH 7.5); IP with rabbit anti-AQP2 on Protein A/G-Agarose, overnight 4 C; immunoblot anti-myc.

Experiment [2] has as its target T2, full-length human Aquaporin-2 (AQP2), C-terminal Cub-tagged MYTH bait (pTMBV-hAQP2-Cub) (human) (UniProt P41181).
T2 sequence: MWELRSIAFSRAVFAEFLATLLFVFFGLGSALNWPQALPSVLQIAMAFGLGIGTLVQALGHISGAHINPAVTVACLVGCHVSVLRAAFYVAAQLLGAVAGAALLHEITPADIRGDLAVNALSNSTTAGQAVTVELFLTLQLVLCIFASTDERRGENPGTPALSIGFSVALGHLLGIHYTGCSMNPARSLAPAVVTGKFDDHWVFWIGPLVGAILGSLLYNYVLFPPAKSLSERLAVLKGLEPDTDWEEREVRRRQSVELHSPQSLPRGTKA
The experiment can be described thus: two-hybrid; Membrane Yeast Two-Hybrid (MYTH), S. cerevisiae NMY51 (HIS3/ADE2/LacZ); Cub-tagged bait, NubG-tagged prey; colony growth on interaction selective media (SD-WLAH) containing X-Gal; confirmed by back transformation.

Results are given in words; binding and its absence hold for the method and conditions named. For part of these data: In cells and extracts the contact can be indirect. Some results given as binding are weak or reduced against the parent protein; the word gives no strength. Where a sequence is shown, tags or fusion partners need not be part of it.

B1: myc-tagged wildtype mouse NDFIP1 (protein, UniProt Q8R0W6 1-221)
chain: MALALAALAAVEPACGSGYQQLQNEEEPGEPEQTAGDAPPPYSSITAESAAYFDYKDESGFPKPPSYNVATTLPSYDEAERTKTEATIPLVPGRDEDFVGRDDFDDTDQLRIGNDGIFMLTFFMAFLFNWIGFFLSFCLTTSAAGRYGAISGFGLSLIKWILIVRFSTYFPGYFDGQYWLWWVFLVLGFLLFLRGFINYAKVRKMPETFSNLPRTRVLFIY
On to B1, for which the binding result in experiment [1] was “binds”.

B2: NEDD4 family interacting protein 2 (NDFIP2) clone from the MYTH screening, amino acids 203-336, NubG-tagged (domain or fragment, UniProt Q9NV92 203-336)
chain: ETSQRIQEEECPPRDDFSDADQLRVGNDGIFMLAFFMAFIFNWLGFCLSFCITNTIAGRYGAICGFGLSLIKWILIVRFSDYFTGYFNGQYWLWWIFLVLGLLLFFRGFVNYLKVRNMSESMAAAHRTRYFFLL
As for B2, the binding entry in experiment [2] is recorded as “binds”.

B3: myc-tagged wildtype mouse NDFIP2 (protein, UniProt Q91ZP6 1-311)
chain: RRSASDAELSAGAEGATGSEAAPPGDLGGRTRGGGRGSAAAAATTSTREAEGAERRGDTPARKPDPEAGRMDHHQLGTGRYQVLHNEEDNSESSAVEQPSTSSLAAPTVEAAASAPALDPDSPPPYSSITVEAPTTSDTDVYSEFYPVPPPYSVATSLPTYDEAEKAKAAALAAAAADAPQRNQEEDCTPRDDFSDVEQLRVGNDGIFMLAFFMAFIFNWLGFCLSFCITNTIAGRYGAICGFGLSLIKWILIVRFSDYFTGYFNGQYWLWWIFLVLGLLLFFRGFVNYLKVRNMSESMAAAHRTRYFFLL
As to B3, the binding result in experiment [1] is “binds”.
